Measurements reported in PubChem BioAssay AID1224828 (NIAID, 2016)
This is an unselected part of about 17,000 reagents tested. 762 of all reagents (4.5%) were called active. 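Active calls include both raised and lowered p65 entry, mostly lowered; wells with fewer than 50 cells lack a z-score.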 The raw values are shown without normalisation. Unmarked entries are inactive. Reagents against one gene are numbered here. No sequences are given here.

Screen: 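Knock-downs that increase or decrease LPS-induced p65 nuclear translocation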 (primary screen)
Cells: mouse RAW264.7 G9 macrophage reporter cells (GFP-p65, Tnf promoter-mCherry)
Knock-down reagent: siRNA pool against mouse genes, 100 nM
Timing: 2 days siRNA transfection, then 40 min LPS before fixation
Challenge: LPS (Salmonella minnesota R595) at 10 ng/ml
Measured: 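Microscopy ratio of nuclear to perinuclear-ring GFP-p65 signal, scaled to the plate median; gene score is the average of two replicate robust z-scores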
Direction: p65 translocation robust z-score: higher = more nuclear NF-kappaB p65 after LPS than the plate median; nuclear/cytoplasmic p65 ratio: higher = more nuclear NF-kappaB p65
Active means: 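Called active when z exceeds 3.3 or falls under -1.56 (median of Tlr4 controls), giving activity score of at least 50; no calls for control wells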
Calls: active = hit (p65 shift raised or lowered); inactive = no clear change

Target gene	reagent no.	p65 translocation robust z-score	nuclear/cytoplasmic p65 ratio, rep 1	nuclear/cytoplasmic p65 ratio, rep 2	low cell count flag
Nfe2	1	-0.41	1.31	1.36	enough cells to score
Ndel1	1	-0.44	1.41	1.27	enough cells to score
Rrp7a	1	-0.21	1.53	1.4	enough cells to score
Kbtbd3	1	0.51	1.62	1.63	enough cells to score
Dimt1	1	-0.94	1.38	1.35	enough cells to score
Gml2	1	-0.29	1.27	1.52	enough cells to score
Gbe1	1	0.09	1.49	1.34	enough cells to score
Armc12	1		1.31	1.4	fewer than 50 cells per well; well left out of scoring
Slu7	1	0.34	1.42	1.84	enough cells to score
Cyp2c50	1	1.17	1.74	1.44	enough cells to score
Tgm2	1	1.82	1.71	1.84	enough cells to score
Pik3ap1	1	0.06	1.47	1.45	enough cells to score
Wnt11	1	-0.34	1.62	1.41	enough cells to score
Dok4	1	0.1	1.55	1.34	enough cells to score
Asxl2	1		1.24	1.15	fewer than 50 cells per well; well left out of scoring
Clcnka	1	-1.06	1.2	1.24	enough cells to score
Nat1	1	-0.27	1.45	1.27	enough cells to score
Pcdhgb1	1	-0.08	1.43	1.14	enough cells to score
Agfg2	1	-0.94	1.54	1.38	enough cells to score
Htr4	1	-0.9	1.39	1.44	enough cells to score
Cfl2	1	-0.29	1.48	1.81	enough cells to score
Vmn1r17	1	2.19	1.71	1.44	enough cells to score
Cdc50a	1		1.53	1.3	fewer than 50 cells per well; well left out of scoring
Lipi	1	-0.46	1.48	1.39	enough cells to score
Krt27	1	-0.97	1.25	1.44	enough cells to score
Eif4ebp3	1	-0.1	1.28	1.51	enough cells to score
Tnfrsf11b	1	-1.76 (active)	1.26	1.12	enough cells to score
Gzme	1	-0.79	1.45	1.5	enough cells to score
Mcpt8	1	1.87	2.07	1.77	enough cells to score
Slc7a3	1	0.25	1.43	1.28	enough cells to score
Sorcs1	1	-0.11	1.45	1.63	enough cells to score
Rap2b	1	-0.01	1.46	1.57	enough cells to score
Bloc1s5	1	-0.26	1.75	1.55	enough cells to score
9330154K18Rik	1	0.06	1.46	1.53	enough cells to score
Gpr84	1	0.08	1.37	1.74	enough cells to score
Immp1l	1	-0.64	1.46	1.35	enough cells to score
Eif2b5	1	0.28	1.53	1.38	enough cells to score
Raf1	1	-1.61 (active)	1.43	1.24	enough cells to score
B3gnt3	1	-0.03	1.62	1.6	enough cells to score
Pigm	1		1.42	1.24	fewer than 50 cells per well; well left out of scoring
Tsc1	1	-0.31	1.46	1.47	enough cells to score
Hic1	1	-0.98	1.31	1.24	enough cells to score
S100a7a	1	-0.6	1.44	1.62	enough cells to score
Babam1	1	-0.89	1.25	1.29	enough cells to score
Nanos1	1	-0.76	1.67	1.08	enough cells to score
Dnm1l	1	0.45	1.69	1.31	enough cells to score
Eya2	1	1.05	1.63	1.48	enough cells to score
Ppm1h	1	2.27	2.14	1.77	enough cells to score
9530002B09Rik	1	-0.48	1.39	1.45	enough cells to score
Cdipt	1	-0.89	1.4	1.71	enough cells to score
Rgs2	1		1.66	1.57	fewer than 50 cells per well; well left out of scoring
Mc4r	1	1.33	1.73	1.74	enough cells to score
Prss12	1		1.64	1.29	fewer than 50 cells per well; well left out of scoring
A830073O21Rik	1	-0.27	1.31	1.53	enough cells to score
Tirap	1	-1.14	1.44	1.28	enough cells to score
Col7a1	1	0.81	1.61	1.45	enough cells to score
Ccdc40	1	0.8	1.71	1.96	enough cells to score
Kcnk2	1	-1.82 (active)	1.28	1.2	enough cells to score
Klhl31	1	0.43	1.61	1.63	enough cells to score
Klhl31	2	-0.68	1.37	1.41	enough cells to score

Single entries from the entries so far:
Value for Bloc1s5 under “nuclear/cytoplasmic p65 ratio, rep 1”: 1.75
Entry of Mc4r in “nuclear/cytoplasmic p65 ratio, rep 1”: 1.73
B3gnt3, p65 translocation robust z-score = -0.03
Eif4ebp3, p65 translocation robust z-score = -0.1
Entry of Dnm1l under “nuclear/cytoplasmic p65 ratio, rep 2”: 1.31
Cfl2, p65 translocation robust z-score → -0.29
